Results deposited as PubChem BioAssay AID1259308 (NCATS, 2017).

Aim: 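Genes whose loss raises luciferase production in HEK293 cells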 (primary screen)
Cells: human HEK293 embryonic kidney cells stably expressing firefly luciferase (HEK-CMV-Luc2-Hygro)
Reagents: single siRNA against human genes, 0.8 pmol siRNA per well
Timing: 72 h
Read-out: 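Luciferase light (ONE-Glo) measured on one replicate plate set and viability (CellTiter-Glo) on the other, scaled to a negative control siRNA, with robust z-scores and luciferase per cell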
Direction: total luciferase, z-score and total luciferase, % of control: higher = more reporter protein produced; luciferase per cell, z-score: higher = more reporter output per viable cell; viable cells, % of control: higher = more viable cells
Rule for the call: 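Active when the median/MAD z-score for overall luciferase is greater than 3; a gene was taken forward for validation with new siRNAs if at least two of its three siRNAs passed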
Calls: active = raised luciferase; inactive = no rise
In all, the deposit lists about 59,000 reagents; below is a part drawn at random. About 1,510 of them (2.6%) were called active. 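Calls use total luciferase alone and ignore viability, so some active siRNAs may act by altering cell number.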 The numbers tell different reagents against one gene apart.

| gene knocked down | siRNA no. | total luciferase, z-score | total luciferase, % of control | luciferase per cell, z-score | viable cells, % of control | Call |
| --- | --- | --- | --- | --- | --- | --- |
| APOM (apolipoprotein M) | 1 | -0.729 | 67.4 | -0.89 | 95.2 | inactive |
| APOM (apolipoprotein M) | 2 | 1.3 | 108 | 1.67 | 77.7 | inactive |
| APOM (apolipoprotein M) | 3 | 0.207 | 86 | -0.322 | 105 | inactive |
| PRRG1 (proline rich and Gla domain 1) | 1 | -1.46 | 52.8 | -0.664 | 70.2 | inactive |
| PRRG1 (proline rich and Gla domain 1) | 2 | -0.923 | 63.5 | -0.641 | 84 | inactive |
| PRRG1 (proline rich and Gla domain 1) | 3 | -1.21 | 57.8 | -1.23 | 89.2 | inactive |
| PLA2G4A (phospholipase A2 group IVA) | 1 | -0.842 | 65.1 | -0.691 | 87.3 | inactive |
| PLA2G4A (phospholipase A2 group IVA) | 2 | -0.107 | 79.8 | -0.762 | 109 | inactive |
| PLA2G4A (phospholipase A2 group IVA) | 3 | -0.169 | 78.5 | -0.458 | 99 | inactive |
| OR2L13 (olfactory receptor family 2 subfamily L member 13) | 1 | -1.18 | 58.3 | -1.13 | 87.8 | inactive |
| OR2L13 (olfactory receptor family 2 subfamily L member 13) | 2 | -0.849 | 65 | 0.166 | 69.5 | inactive |
| OR2L13 (olfactory receptor family 2 subfamily L member 13) | 3 | 1.92 | 120 | 2.61 | 67.5 | inactive |
| CBY3 (chibby family member 3) | 1 | 0.0982 | 83.8 | -0.473 | 106 | inactive |
| CBY3 (chibby family member 3) | 2 | -0.258 | 76.7 | -0.00431 | 85.9 | inactive |
| CBY3 (chibby family member 3) | 3 | -0.141 | 79.1 | -0.866 | 111 | inactive |
| KCNIP4 (potassium voltage-gated channel interacting protein 4) | 1 | 0.979 | 101 | 1.88 | 69 | inactive |
| KCNIP4 (potassium voltage-gated channel interacting protein 4) | 2 | -0.653 | 68.9 | -0.345 | 84.3 | inactive |
| KCNIP4 (potassium voltage-gated channel interacting protein 4) | 3 | -2.44 | 33.3 | -0.881 | 46.9 | inactive |
| LYZ (lysozyme) | 1 | -2.12 | 39.7 | -1.7 | 69.3 | inactive |
| LYZ (lysozyme) | 2 | -0.229 | 77.3 | 0.0435 | 85.4 | inactive |
| LYZ (lysozyme) | 3 | -0.295 | 76 | 0.114 | 82.4 | inactive |
| MTUS2 (microtubule associated scaffold protein 2) | 1 | -0.139 | 79.1 | 0.368 | 80.3 | inactive |
| MTUS2 (microtubule associated scaffold protein 2) | 2 | 0.917 | 100 | 1.11 | 83.5 | inactive |
| MTUS2 (microtubule associated scaffold protein 2) | 3 | -0.798 | 66 | -0.721 | 89.2 | inactive |

Part of the list above, set out differently.
gene knocked down | siRNA no. | total luciferase, z-score | total luciferase, % of control | luciferase per cell, z-score | viable cells, % of control | Call
OR2L13 (olfactory receptor family 2 subfamily L member 13) | 3 | 1.92 | 120 | 2.61 | 67.5 | inactive
CBY3 (chibby family member 3) | 1 | 0.0982 | 83.8 | -0.473 | 106 | inactive
CBY3 (chibby family member 3) | 2 | -0.258 | 76.7 | -0.00431 | 85.9 | inactive
CBY3 (chibby family member 3) | 3 | -0.141 | 79.1 | -0.866 | 111 | inactive
KCNIP4 (potassium voltage-gated channel interacting protein 4) | 1 | 0.979 | 101 | 1.88 | 69 | inactive
KCNIP4 (potassium voltage-gated channel interacting protein 4) | 2 | -0.653 | 68.9 | -0.345 | 84.3 | inactive
KCNIP4 (potassium voltage-gated channel interacting protein 4) | 3 | -2.44 | 33.3 | -0.881 | 46.9 | inactive

Continued:
| gene knocked down | siRNA no. | total luciferase, z-score | total luciferase, % of control | luciferase per cell, z-score | viable cells, % of control | Call |
| --- | --- | --- | --- | --- | --- | --- |
| TAS2R13 (taste 2 receptor member 13) | 1 | -2.3 | 36.2 | -2.73 | 82.9 | inactive |
| TAS2R13 (taste 2 receptor member 13) | 2 | 0.289 | 87.6 | -0.249 | 105 | inactive |
| TAS2R13 (taste 2 receptor member 13) | 3 | 1.65 | 115 | 0.659 | 108 | inactive |
| PPFIA3 (PPFI scaffold protein A3) | 1 | 0.124 | 84.3 | -0.466 | 107 | inactive |
| PPFIA3 (PPFI scaffold protein A3) | 2 | -1.21 | 57.9 | -1.61 | 98.7 | inactive |
| PPFIA3 (PPFI scaffold protein A3) | 3 | -1.18 | 58.4 | -1.26 | 91 | inactive |
| HSD17B7 (hydroxysteroid 17-beta dehydrogenase 7) | 1 | -0.35 | 74.9 | -0.648 | 99.3 | inactive |
| HSD17B7 (hydroxysteroid 17-beta dehydrogenase 7) | 2 | -2.02 | 41.7 | -1.96 | 78.1 | inactive |
| HSD17B7 (hydroxysteroid 17-beta dehydrogenase 7) | 3 | 0.45 | 90.8 | 0.0339 | 101 | inactive |
| UBAP2 (ubiquitin associated protein 2) | 1 | 0.449 | 90.8 | 0.0645 | 99.8 | inactive |
| UBAP2 (ubiquitin associated protein 2) | 2 | -0.952 | 63 | -1.28 | 98.4 | inactive |
| UBAP2 (ubiquitin associated protein 2) | 3 | -0.824 | 65.5 | -0.511 | 83.7 | inactive |
| KIAA1614 | 1 | 1.95 | 121 | 1.46 | 91.9 | inactive |
| KIAA1614 | 2 | -0.249 | 76.9 | -0.531 | 98.9 | inactive |
| KIAA1614 | 3 | 0.56 | 93 | -0.502 | 119 | inactive |
| OOSP2 (oocyte secreted protein 2) | 1 | -0.33 | 75.3 | -0.296 | 91 | inactive |
| OOSP2 (oocyte secreted protein 2) | 2 | 0.27 | 87.3 | 0.344 | 89.1 | inactive |
| OOSP2 (oocyte secreted protein 2) | 3 | 0.591 | 93.6 | -0.121 | 108 | inactive |
| AXDND1 (axonemal dynein light chain domain containing 1) | 1 | -1.32 | 55.7 | -1.33 | 88.2 | inactive |
| AXDND1 (axonemal dynein light chain domain containing 1) | 2 | -1.08 | 60.4 | -0.67 | 80.5 | inactive |
| AXDND1 (axonemal dynein light chain domain containing 1) | 3 | -0.14 | 79.1 | -0.933 | 113 | inactive |
| ZNF962P (zinc finger protein 962, pseudogene) | 1 | -0.141 | 79.1 | -0.0971 | 90.7 | inactive |
| ZNF962P (zinc finger protein 962, pseudogene) | 2 | 0.204 | 85.9 | -0.428 | 108 | inactive |
| ZNF962P (zinc finger protein 962, pseudogene) | 3 | -0.604 | 69.9 | -0.0533 | 79.2 | inactive |
| ARID4A (AT-rich interaction domain 4A) | 1 | 0.00671 | 82 | 0.142 | 88.3 | inactive |
| ARID4A (AT-rich interaction domain 4A) | 2 | -0.957 | 62.9 | -1.15 | 95 | inactive |
| ARID4A (AT-rich interaction domain 4A) | 3 | 0.318 | 88.2 | 0.688 | 82.2 | inactive |
| APOD (apolipoprotein D) | 1 | 1.09 | 104 | 0.621 | 98.2 | inactive |
| APOD (apolipoprotein D) | 2 | -0.62 | 69.6 | -0.761 | 95 | inactive |
| APOD (apolipoprotein D) | 3 | 0.648 | 94.8 | -0.197 | 112 | inactive |
| NIT2 (nitrilase family member 2) | 1 | 0.897 | 99.7 | 1.47 | 75.7 | inactive |
| NIT2 (nitrilase family member 2) | 2 | -0.552 | 70.9 | -0.499 | 90.4 | inactive |
| NIT2 (nitrilase family member 2) | 3 | 1.21 | 106 | 0.99 | 91.3 | inactive |
